Reference: patent US20140235546A1
Results are given in words; binding and its absence hold for the method and conditions named. In cells and extracts the contact can be indirect. Some results given as binding are weak or reduced against the parent protein; the word gives no strength.

Amino acid sequences for entries named in this document (tags omitted). Residues count along the entry.
UniProt P08909, residues 33-460: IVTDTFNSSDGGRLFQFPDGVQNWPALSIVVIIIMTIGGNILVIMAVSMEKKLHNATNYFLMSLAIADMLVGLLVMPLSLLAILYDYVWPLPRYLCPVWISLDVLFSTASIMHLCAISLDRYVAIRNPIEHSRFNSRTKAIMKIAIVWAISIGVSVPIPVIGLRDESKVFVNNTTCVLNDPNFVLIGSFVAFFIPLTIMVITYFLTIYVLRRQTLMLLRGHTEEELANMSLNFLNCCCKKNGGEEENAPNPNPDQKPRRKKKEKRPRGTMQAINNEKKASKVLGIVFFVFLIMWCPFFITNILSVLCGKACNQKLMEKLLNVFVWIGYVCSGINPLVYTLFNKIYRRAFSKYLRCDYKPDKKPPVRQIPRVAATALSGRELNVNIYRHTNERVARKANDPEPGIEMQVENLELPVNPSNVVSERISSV
UniProt O54857, residues 2-403: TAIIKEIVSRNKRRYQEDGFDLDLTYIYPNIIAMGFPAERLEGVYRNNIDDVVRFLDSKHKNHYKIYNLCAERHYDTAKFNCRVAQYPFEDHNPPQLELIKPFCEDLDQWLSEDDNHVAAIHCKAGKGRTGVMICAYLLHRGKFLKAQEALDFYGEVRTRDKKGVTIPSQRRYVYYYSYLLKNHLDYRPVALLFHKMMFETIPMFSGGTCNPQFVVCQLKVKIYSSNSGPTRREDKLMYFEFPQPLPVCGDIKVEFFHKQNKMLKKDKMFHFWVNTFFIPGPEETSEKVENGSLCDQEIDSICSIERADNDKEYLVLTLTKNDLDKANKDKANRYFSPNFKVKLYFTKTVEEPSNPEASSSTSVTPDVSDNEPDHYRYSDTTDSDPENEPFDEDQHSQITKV

Target: 5-HT2C receptor in rat brain tissue (rat) (UniProt P08909)
Test: co-immunoprecipitation from brain tissue

binding: binds
Substance: PTEN in rat brain tissue (from UniProt O54857 2-403) (enzyme)
